Results are given in words; binding and its absence hold for the method and conditions named. Binding calls can cover weak binding; strength is not graded here.
Target: GST-tagged EhC2PK (E. histolytica)
Assay: pull-down; GST-tagged protein loaded on glutathione-Sepharose beads, recombinant EhCaBP1 added, in the presence and absence of Ca2+; 4°C, 10 mM Tris-Cl pH 7.5, 100 mM NaCl, 0.1% NP-40, 2 mM DTT; blot with anti-EhCaBP1; both purified

B1: recombinant EhCaBP1 (protein, UniProt P38505 1-134)
chain: MAEALFKEIDVNGDGAVSYEEVKAFVSKKRAIKNEQLLQLIFKSIDADGNGEIDQNEFAKFYGSIQGQDLSDDKIGLKVLYKLMDVDGDGKLTKEEVTSFFKKHGIEKVAEQVMKADANGDGYITLEEFLEFSL
  binding: binds

Reference: PMC4672914
